No constants are given. Whether binding was seen depends on the method and setting. In cells and extracts the contact can be indirect. Some entries that bind do so weakly or less than the wild type.
Experiments:
S6K1-mCherry = S6K1-mCherry (UniProt P23443); test: FRET or BRET; FRET-FLIM in live HEK293 cells co-expressing an EGFP-tagged donor and an mCherry-tagged acceptor; multiphoton (910 nm) or one-photon (488 nm) excitation; donor fluorescence lifetime read
[1] = target: EGFP-S6K1 (containing an N-terminus His tag) (UniProt P23443); test: as above
[2] = target: EGFP-S6K1 (containing an N-terminus His tag) (UniProt P23443); test: pull-down; His-tagged EGFP-S6K1 co-expressed with partners in HEK293F cells for 72 h; lysate (50 mM HEPES pH 7.4, 150 mM NaCl, 3 mM DTT, 0.4% CHAPS) loaded on Ni-NTA resin at 4 °C, washed with 20 mM imidazole, eluted with 500 mM imidazole; Western blot

Amino acid sequences for entries named in this document (tags omitted).
UniProt P23443: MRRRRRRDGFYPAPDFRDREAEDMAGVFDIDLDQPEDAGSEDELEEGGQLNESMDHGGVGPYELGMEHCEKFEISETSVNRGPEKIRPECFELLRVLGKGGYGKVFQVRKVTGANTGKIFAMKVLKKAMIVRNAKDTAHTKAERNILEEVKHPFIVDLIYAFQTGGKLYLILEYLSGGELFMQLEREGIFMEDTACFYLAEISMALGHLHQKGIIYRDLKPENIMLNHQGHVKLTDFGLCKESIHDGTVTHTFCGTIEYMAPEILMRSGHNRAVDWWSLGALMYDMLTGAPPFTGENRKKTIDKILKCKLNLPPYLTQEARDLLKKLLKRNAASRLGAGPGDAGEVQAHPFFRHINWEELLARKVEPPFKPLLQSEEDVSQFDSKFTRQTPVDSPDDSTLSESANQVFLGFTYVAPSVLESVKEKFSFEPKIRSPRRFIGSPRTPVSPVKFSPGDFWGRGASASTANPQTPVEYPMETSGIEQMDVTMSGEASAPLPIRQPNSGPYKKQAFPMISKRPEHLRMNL
UniProt Q8N122: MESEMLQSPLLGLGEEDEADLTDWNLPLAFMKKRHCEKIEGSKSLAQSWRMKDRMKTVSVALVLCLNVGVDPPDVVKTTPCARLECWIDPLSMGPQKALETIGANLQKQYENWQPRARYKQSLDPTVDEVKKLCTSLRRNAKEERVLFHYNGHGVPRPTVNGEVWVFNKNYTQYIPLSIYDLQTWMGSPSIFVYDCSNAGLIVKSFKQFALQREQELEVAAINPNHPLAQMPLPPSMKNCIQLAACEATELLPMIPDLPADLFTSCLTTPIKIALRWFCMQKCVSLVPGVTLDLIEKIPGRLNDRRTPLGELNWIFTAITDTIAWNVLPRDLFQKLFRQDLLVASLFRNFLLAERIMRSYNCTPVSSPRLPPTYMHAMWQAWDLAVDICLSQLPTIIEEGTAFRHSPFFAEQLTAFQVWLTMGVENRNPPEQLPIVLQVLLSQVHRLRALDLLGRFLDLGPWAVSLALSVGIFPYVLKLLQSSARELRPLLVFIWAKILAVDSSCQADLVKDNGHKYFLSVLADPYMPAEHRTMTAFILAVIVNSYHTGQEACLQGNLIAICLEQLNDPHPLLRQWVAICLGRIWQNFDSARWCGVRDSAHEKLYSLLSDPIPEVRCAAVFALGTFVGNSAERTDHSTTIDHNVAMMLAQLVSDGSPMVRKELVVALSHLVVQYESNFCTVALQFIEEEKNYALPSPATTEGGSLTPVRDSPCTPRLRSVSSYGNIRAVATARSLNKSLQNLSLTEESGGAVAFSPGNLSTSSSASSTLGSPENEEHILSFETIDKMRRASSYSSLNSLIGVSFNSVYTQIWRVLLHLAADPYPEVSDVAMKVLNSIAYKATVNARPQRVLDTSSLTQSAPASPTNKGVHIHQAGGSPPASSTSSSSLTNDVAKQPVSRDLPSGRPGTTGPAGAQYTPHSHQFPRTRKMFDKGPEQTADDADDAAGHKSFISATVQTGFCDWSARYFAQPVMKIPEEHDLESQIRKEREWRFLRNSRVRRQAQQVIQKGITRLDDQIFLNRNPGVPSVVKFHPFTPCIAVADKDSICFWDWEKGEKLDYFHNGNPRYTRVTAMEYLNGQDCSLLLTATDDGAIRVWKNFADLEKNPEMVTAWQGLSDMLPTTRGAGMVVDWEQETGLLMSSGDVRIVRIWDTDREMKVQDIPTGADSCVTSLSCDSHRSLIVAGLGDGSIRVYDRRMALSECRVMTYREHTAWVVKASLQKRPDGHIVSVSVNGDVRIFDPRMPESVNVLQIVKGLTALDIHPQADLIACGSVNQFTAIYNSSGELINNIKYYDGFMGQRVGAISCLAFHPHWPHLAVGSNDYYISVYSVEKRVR

binding (S6K1-mCherry) | binding [1] | binding [2] | Substance
no binding | – | – | EGFP-Rheb (from UniProt Q15382 1-184)
– | binds | binds | mCherry-raptor (from UniProt Q8N122 1-1335)
– | – | no binding | mDsRed-Rheb (from UniProt Q15382 1-184)

Source: paper PMC6399282
